Results deposited as PubChem BioAssay AID1259308 (NCATS, 2017).
Aim: 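Genes whose loss raises luciferase production in HEK293 cells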 (primary screen). Cell system: human HEK293 embryonic kidney cells stably expressing firefly luciferase (HEK-CMV-Luc2-Hygro). Knock-down reagent: single siRNA against human genes, 0.8 pmol siRNA per well. Time to read-out: 72 h. Read-out: 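Luciferase light (ONE-Glo) measured on one replicate plate set and viability (CellTiter-Glo) on the other, scaled to a negative control siRNA, with robust z-scores and luciferase per cell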. Reading the numbers: total luciferase, z-score and total luciferase, % of control: higher = more reporter protein produced. Rule for the call: 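Active when the median/MAD z-score for overall luciferase is greater than 3; a gene was taken forward for validation with new siRNAs if at least two of its three siRNAs passed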. Calls: active = raised luciferase; inactive = no rise.
In all, the deposit lists about 59,000 reagents; this is a part drawn at random. About 1,510 of all reagents (2.6%) count as active. 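Calls use total luciferase alone and ignore viability, so some active siRNAs may act by altering cell number.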 A number with no mark means an inactive call. Reagents against one gene are numbered here. Not all columns of the deposit are shown.

no.	gene	siRNA no.	total luciferase, z-score	total luciferase, % of control
1	ANXA4 (annexin A4)	1	-0.256	76.8
2	ANXA4 (annexin A4)	2	-0.265	76.6
3	ANXA4 (annexin A4)	3	-0.55	70.9
4	ERP44 (endoplasmic reticulum protein 44)	1	0.012	82.1
5	ERP44 (endoplasmic reticulum protein 44)	2	4.95 (active)	180
6	ERP44 (endoplasmic reticulum protein 44)	3	-0.539	71.2
7	VAMP7 (vesicle associated membrane protein 7)	1	-0.916	63.7
8	VAMP7 (vesicle associated membrane protein 7)	2	0.111	84.1
9	VAMP7 (vesicle associated membrane protein 7)	3	0.0857	83.6
10	CYP2C19 (cytochrome P450 family 2 subfamily C member 19)	1	-0.0362	81.2
11	CYP2C19 (cytochrome P450 family 2 subfamily C member 19)	2	0.908	99.9
12	CYP2C19 (cytochrome P450 family 2 subfamily C member 19)	3	-1.48	52.4
13	ID1 (inhibitor of DNA binding 1)	1	0.64	94.6
14	ID1 (inhibitor of DNA binding 1)	2	0.099	83.9
15	ID1 (inhibitor of DNA binding 1)	3	1.19	105
16	KLHL30 (kelch like family member 30)	1	-1.74	47.3
17	KLHL30 (kelch like family member 30)	2	-0.112	79.7
18	KLHL30 (kelch like family member 30)	3	0.634	94.5
19	LCAT (lecithin-cholesterol acyltransferase)	1	0.617	94.2
20	LCAT (lecithin-cholesterol acyltransferase)	2	-0.523	71.5
21	LCAT (lecithin-cholesterol acyltransferase)	3	4.56 (active)	173
22	FLJ40288 (Putative uncharacterized protein FLJ40288)	1	0.176	85.4
23	FLJ40288 (Putative uncharacterized protein FLJ40288)	2	-0.954	62.9
24	FLJ40288 (Putative uncharacterized protein FLJ40288)	3	0.513	92.1
25	APOA5 (apolipoprotein A5)	1	-1.29	56.2
26	APOA5 (apolipoprotein A5)	2	-0.785	66.3
27	APOA5 (apolipoprotein A5)	3	0.0618	83.1
28	SORBS1 (sorbin and SH3 domain containing 1)	1	0.0932	83.7
29	SORBS1 (sorbin and SH3 domain containing 1)	2	0.88	99.4
30	SORBS1 (sorbin and SH3 domain containing 1)	3	-0.038	81.1
31	CPSF4 (cleavage and polyadenylation specific factor 4)	1	-0.914	63.7
32	CPSF4 (cleavage and polyadenylation specific factor 4)	2	0.289	87.6
33	CPSF4 (cleavage and polyadenylation specific factor 4)	3	-0.0963	80
34	ZNF598 (zinc finger protein 598, E3 ubiquitin ligase)	1	1.79	118
35	ZNF598 (zinc finger protein 598, E3 ubiquitin ligase)	2	0.136	84.6
36	ZNF598 (zinc finger protein 598, E3 ubiquitin ligase)	3	0.255	87
37	DNAJB5 (DnaJ heat shock protein family (Hsp40) member B5)	1	1.32	108
38	DNAJB5 (DnaJ heat shock protein family (Hsp40) member B5)	2	-0.825	65.5
39	DNAJB5 (DnaJ heat shock protein family (Hsp40) member B5)	3	3.71 (active)	156
40	TMX4 (thioredoxin related transmembrane protein 4)	1	2.14	125
41	TMX4 (thioredoxin related transmembrane protein 4)	2	-0.364	74.7
42	TMX4 (thioredoxin related transmembrane protein 4)	3	0.534	92.5
43	TFAP2B (transcription factor AP-2 beta)	1	3.06 (active)	143
44	TFAP2B (transcription factor AP-2 beta)	2	0.0933	83.7
45	TFAP2B (transcription factor AP-2 beta)	3	1.17	105
46	TTL (tubulin tyrosine ligase)	1	0.199	85.8
47	TTL (tubulin tyrosine ligase)	2	-1.67	48.6
48	TTL (tubulin tyrosine ligase)	3	-0.133	79.2
49	BACC1 (BPTF associated chromatin complex component 1)	1	-0.446	73
50	BACC1 (BPTF associated chromatin complex component 1)	2	-2.07	40.7
51	BACC1 (BPTF associated chromatin complex component 1)	3	-0.609	69.8
52	EXOSC2 (exosome component 2)	1	-0.527	71.4
53	EXOSC2 (exosome component 2)	2	1.12	104
54	EXOSC2 (exosome component 2)	3	4.85 (active)	178
55	SPR (sepiapterin reductase)	1	-0.513	71.7
56	SPR (sepiapterin reductase)	2	0.664	95.1
57	SPR (sepiapterin reductase)	3	-0.86	64.8

Quoted from the entries so far, 8 entries:
no.	gene	siRNA no.	total luciferase, z-score	total luciferase, % of control
9	VAMP7 (vesicle associated membrane protein 7)	3	0.0857	83.6
10	CYP2C19 (cytochrome P450 family 2 subfamily C member 19)	1	-0.0362	81.2
11	CYP2C19 (cytochrome P450 family 2 subfamily C member 19)	2	0.908	99.9
12	CYP2C19 (cytochrome P450 family 2 subfamily C member 19)	3	-1.48	52.4
13	ID1 (inhibitor of DNA binding 1)	1	0.64	94.6
14	ID1 (inhibitor of DNA binding 1)	2	0.099	83.9
15	ID1 (inhibitor of DNA binding 1)	3	1.19	105
16	KLHL30 (kelch like family member 30)	1	-1.74	47.3
